Experimental data published in patent publication US20090117097A1 (Chugai, published 2009).
No constants are given. Whether binding was seen depends on the method and setting. Some entries that bind do so weakly or less than the wild type.

Sequences of proteins named here, by UniProt entry; tags and fusion partners are left off. A change or cut given only in a name is not applied to a line headed by its entry.
UniProt P40238: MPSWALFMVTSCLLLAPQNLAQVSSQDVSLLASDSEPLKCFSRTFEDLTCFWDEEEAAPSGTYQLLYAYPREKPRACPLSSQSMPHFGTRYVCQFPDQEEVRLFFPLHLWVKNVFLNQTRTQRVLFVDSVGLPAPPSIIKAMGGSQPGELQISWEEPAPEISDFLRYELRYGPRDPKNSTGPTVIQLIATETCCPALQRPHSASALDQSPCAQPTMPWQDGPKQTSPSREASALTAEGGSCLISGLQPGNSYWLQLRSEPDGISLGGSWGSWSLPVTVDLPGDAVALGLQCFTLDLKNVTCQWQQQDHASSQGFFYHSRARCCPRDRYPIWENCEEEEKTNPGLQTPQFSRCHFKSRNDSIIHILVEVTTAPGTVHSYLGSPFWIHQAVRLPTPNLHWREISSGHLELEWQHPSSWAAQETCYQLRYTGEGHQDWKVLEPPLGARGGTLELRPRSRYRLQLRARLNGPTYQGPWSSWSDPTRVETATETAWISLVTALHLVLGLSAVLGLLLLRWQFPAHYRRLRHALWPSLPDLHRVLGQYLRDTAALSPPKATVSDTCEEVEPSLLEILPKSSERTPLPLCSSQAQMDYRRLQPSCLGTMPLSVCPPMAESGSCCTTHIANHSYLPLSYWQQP

Experiments:
[1] = molecular target: GST fusion protein containing MG10 (Gln213 to Ala231) of human Mp1 (human) (UniProt P40238); assay: Western blotting of GST fusion proteins
[2] = molecular target: GST fusion protein containing MG10 (Gln213 to Ala231) of human Mp1 (human) (UniProt P40238); assay: Western blotting of GST fusion proteins (refers back to Example 1.8)
[3] = molecular target: GST fusion protein containing MG10 (Gln213 to Ala231) of human Mp1 (human) (UniProt P40238); assay: adsorption to an MG10-GST fusion protein-immobilized affinity column

Row | binding [1] | binding [2] | binding [3] | Binder
1 | – | – | binds | hVB22B u2-wz4 sc(Fv)2 (scFv) scFv: QVQLVQSGPEVKKPGASVKVSCKASGYTFTNSWMNWVRQRPGKGLEWIGRIYPGDGETIYNGKFRVRVTITADESTSTAYMQLSSLRSEDTAVYYCARGYDDYSFAYWGQGTTVTVSSGGGGSGGGGSGGGGSDIVMTQSPLSLPVTPGEPASISCRSSKSLLHSNGNTYLYWFLQKPGQSPQLLIYRMSNLASGVPDRFSGSGSGTDFTLKISRVEAEDVGVYYCMQHIEYPFTFGQGTKLEIKGGGGSGGGGSGGGGSQVQLVQSGPEVKKPGASVKVSCKASGYTFTNSWMNWVRQRPGKGLEWIGRIYPGDGETIYNGKFRVRVTITADESTSTAYMQLSSLRSEDTAVYYCARGYDDYSFAYWGQGTTVTVSSGGGGSGGGGSGGGGSDIVMTQSPLSLPVTPGEPASISCRSSKSLLHSNGNTYLYWFLQKPGQSPQLLIYRMSNLASGVPDRFSGSGSGTDFTLKISRVEAEDVGVYYCMQHIEYPFTFGQGTKLEIK
2 | – | – | binds | hVB22B q-wz5 sc(Fv)2 (scFv) scFv: QVQLVQSGPEVKKPGASVKVSCKASGYTFTNSWMNWVRQRPGKGLEWIGRIYPGDGETIYNGKFRVRVTITADESTSTAYMELSSLRSEDTAVYYCARGYDDYSFAYWGQGTTVTVSSGGGGSGGGGSGGGGSDIVMTQSPLSLPVTPGEPASISCRSSKSLLHSNGNTYLYWFQQKPGQAPRLLIYRMSNLASGVPDRFSGSGSGTAFTLKISRVEAEDVGVYYCMQHIEYPFTFGQGTKLEIKGGGGSGGGGSGGGGSQVQLVQSGPEVKKPGASVKVSCKASGYTFTNSWMNWVRQRPGKGLEWIGRIYPGDGETIYNGKFRVRVTITADESTSTAYMELSSLRSEDTAVYYCARGYDDYSFAYWGQGTTVTVSSGGGGSGGGGSGGGGSDIVMTQSPLSLPVTPGEPASISCRSSKSLLHSNGNTYLYWFQQKPGQAPRLLIYRMSNLASGVPDRFSGSGSGTAFTLKISRVEAEDVGVYYCMQHIEYPFTFGQGTKLEIK

More lines, now with the values behind:

Row | Binder | binding [1] | binding [2] | binding [3]
3 | anti-human Mp1 antibody VB22B (VB22B IgG) (antibody, V domains shown, Mouse monoclonal IgG purified from hybridoma supernatant; They were cloned with primers complementary to the mouse IgG2b and kappa constant regions; also called murine antibody VB22B) VH: QVQLQQSGPELVKPGASVKISCKASGYAFTNSWMNWVKQRPGKGLEWIGRIYPGDGETIYNGKFRVKATLTADKSSSTAYMDISSLTSEDSAVYFCARGYDDYSFAYWGQGTLVTVSA VL: DIVMTQAAPSIPVTPGESVSISCRSSKSLLHSNGNTYLYWFLQRPGQSPQLLIYRMSNLASGVPDRFSGSGSGTAFTLRISRVEAEDVGVYYCMQHIEYPFTFGSGTKLEIK | binds | binds | –
4 | hVB22B p-z sc(Fv)2 (scFv) scFv: QVQLVQSGPEVKKPGASVKVSCKASGYTFTNSWMNWVRQRPGKGLEWMGRIYPGDGETIYNGKFRVRVTITADESTSTAYMELSSLRSEDTAVYYCARGYDDYSFAYWGQGTTVTVSSGGGGSGGGGSGGGGSDIVMTQSALSLPVTPGEPASISCRSSKSLLHSNGNTYLYWFQQKPGQSPQLLIYRMSNLASGVPDRFSGSGSGTAFTLKISRVEAEDVGVYYCMQHIEYPFTFGQGTKLEIKGGGGSGGGGSGGGGSQVQLVQSGPEVKKPGASVKVSCKASGYTFTNSWMNWVRQRPGKGLEWMGRIYPGDGETIYNGKFRVRVTITADESTSTAYMELSSLRSEDTAVYYCARGYDDYSFAYWGQGTTVTVSSGGGGSGGGGSGGGGSDIVMTQSALSLPVTPGEPASISCRSSKSLLHSNGNTYLYWFQQKPGQSPQLLIYRMSNLASGVPDRFSGSGSGTAFTLKISRVEAEDVGVYYCMQHIEYPFTFGQGTKLEIK | – | – | binds
5 | hVB22B e sc(Fv)2 (scFv) scFv: QVQLVQSGPEVKKPGASVKVSCKASGYTFTNSWMNWIRQRPGKGLEWIGRIYPGDGETIYNGKFRVRVTITADESTSTAYMELSSLRSEDTAVYYCARGYDDYSFAYWGQGTLVTVSSGGGGSGGGGSGGGGSDIVMTQSALSLPVTPGEPASISCRSSKSLLHSNGNTYLYWYLQKPGQSPQLLIYRMSNLASGVPDRFSGSGSGTAFTLKISRVEAEDVGVYYCMQHIEYPFTFGQGTKLEIKGGGGSGGGGSGGGGSQVQLVQSGPEVKKPGASVKVSCKASGYTFTNSWMNWIRQRPGKGLEWIGRIYPGDGETIYNGKFRVRVTITADESTSTAYMELSSLRSEDTAVYYCARGYDDYSFAYWGQGTLVTVSSGGGGSGGGGSGGGGSDIVMTQSALSLPVTPGEPASISCRSSKSLLHSNGNTYLYWYLQKPGQSPQLLIYRMSNLASGVPDRFSGSGSGTAFTLKISRVEAEDVGVYYCMQHIEYPFTFGQGTKLEIK | – | – | binds
6 | hVB22B g-e sc(Fv)2 (scFv) scFv: QVQLVQSGPEVKKPGASVKVSCKASGYTFTNSWMNWVRQRPGKGLEWVGRIYPGDGETIYNGKFRVRVTITADESTSTAYMELSSLRSEDTAVYYCARGYDDYSFAYWGQGTTVTVSSGGGGSGGGGSGGGGSDIVMTQSALSLPVTPGEPASISCRSSKSLLHSNGNTYLYWYLQKPGQSPQLLIYRMSNLASGVPDRFSGSGSGTAFTLKISRVEAEDVGVYYCMQHIEYPFTFGQGTKLEIKGGGGSGGGGSGGGGSQVQLVQSGPEVKKPGASVKVSCKASGYTFTNSWMNWVRQRPGKGLEWVGRIYPGDGETIYNGKFRVRVTITADESTSTAYMELSSLRSEDTAVYYCARGYDDYSFAYWGQGTTVTVSSGGGGSGGGGSGGGGSDIVMTQSALSLPVTPGEPASISCRSSKSLLHSNGNTYLYWYLQKPGQSPQLLIYRMSNLASGVPDRFSGSGSGTAFTLKISRVEAEDVGVYYCMQHIEYPFTFGQGTKLEIK | – | – | binds
